Test results: PMC8881602
These are yes or no findings as the source states them, for the method shown. Binding seen in cells or lysates may run through a third protein. These calls come from enrichment with a bait or labelling near it, and not all partners need be listed. For some of these results: No binding means not detected with the bait.

The chains behind the UniProt entries cited, without tags or fusion partners. Residues count along the entry.
UniProt Q3UVX5, residues 19-1203: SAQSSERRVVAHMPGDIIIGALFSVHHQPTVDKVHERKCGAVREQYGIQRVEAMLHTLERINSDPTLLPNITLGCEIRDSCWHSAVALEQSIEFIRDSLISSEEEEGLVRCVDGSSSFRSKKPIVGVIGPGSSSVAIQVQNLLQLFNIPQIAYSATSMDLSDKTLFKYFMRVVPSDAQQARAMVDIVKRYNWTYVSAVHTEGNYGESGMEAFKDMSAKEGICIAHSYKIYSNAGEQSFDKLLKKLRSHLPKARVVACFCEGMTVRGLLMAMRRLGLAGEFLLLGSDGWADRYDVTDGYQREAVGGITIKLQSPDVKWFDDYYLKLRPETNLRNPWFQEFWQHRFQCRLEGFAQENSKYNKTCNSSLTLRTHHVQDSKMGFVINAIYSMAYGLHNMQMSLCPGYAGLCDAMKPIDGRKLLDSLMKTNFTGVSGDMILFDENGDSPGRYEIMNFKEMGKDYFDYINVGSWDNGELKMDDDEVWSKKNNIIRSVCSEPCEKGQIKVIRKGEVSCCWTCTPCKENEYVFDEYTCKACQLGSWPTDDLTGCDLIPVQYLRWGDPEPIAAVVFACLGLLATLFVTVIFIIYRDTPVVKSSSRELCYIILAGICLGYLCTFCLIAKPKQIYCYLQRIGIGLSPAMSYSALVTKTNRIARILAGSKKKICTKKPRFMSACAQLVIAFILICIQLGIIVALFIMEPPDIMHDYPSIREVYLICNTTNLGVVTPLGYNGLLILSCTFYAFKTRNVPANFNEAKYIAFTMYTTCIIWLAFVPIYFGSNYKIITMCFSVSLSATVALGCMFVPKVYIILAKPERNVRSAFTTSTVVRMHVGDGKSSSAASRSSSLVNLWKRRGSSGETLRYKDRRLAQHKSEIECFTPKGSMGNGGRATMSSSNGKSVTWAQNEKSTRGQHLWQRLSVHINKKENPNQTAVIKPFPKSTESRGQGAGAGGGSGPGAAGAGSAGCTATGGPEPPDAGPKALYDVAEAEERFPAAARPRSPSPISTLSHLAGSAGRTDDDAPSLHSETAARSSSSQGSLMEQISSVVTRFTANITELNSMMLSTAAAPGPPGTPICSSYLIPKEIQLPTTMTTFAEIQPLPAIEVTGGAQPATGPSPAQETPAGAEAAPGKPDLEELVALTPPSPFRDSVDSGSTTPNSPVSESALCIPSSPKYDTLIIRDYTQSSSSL

T1: Homer protein homolog 1 (mouse (endogenous in cortical slices)) (UniProt Q9Z2Y3)
T1 sequence: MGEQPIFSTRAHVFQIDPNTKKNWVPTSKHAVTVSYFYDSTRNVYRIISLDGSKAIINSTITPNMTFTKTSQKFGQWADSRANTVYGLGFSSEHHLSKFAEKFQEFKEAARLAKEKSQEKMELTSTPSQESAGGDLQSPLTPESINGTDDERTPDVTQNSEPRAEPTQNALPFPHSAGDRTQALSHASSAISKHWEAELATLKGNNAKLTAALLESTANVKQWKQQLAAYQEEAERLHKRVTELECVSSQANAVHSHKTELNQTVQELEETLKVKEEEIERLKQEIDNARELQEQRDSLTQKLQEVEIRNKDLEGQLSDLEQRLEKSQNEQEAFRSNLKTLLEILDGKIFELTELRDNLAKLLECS


Assays:
[1] = molecular target: T1, Homer protein homolog 1 (mouse (endogenous in cortical slices)); assay: condition: only after 5 min of 50 mM KCl on the slices; affinity purification with mass spectrometry; as a1, but slices depolarised with 50 mM KCl for 5 min at 37 °C before lysis; WT-KCl against KO-KCl (log2FC at least 1, p < 0.01)
[2] = molecular target: T1, Homer protein homolog 1 (mouse (endogenous in cortical slices)); assay: affinity purification with mass spectrometry; Homer1 precipitated with antibody AT1F3 and Protein G magnetic beads from 1% NP-40 lysates of acute cortical slices kept in control aCSF; label-free DIA LC-MS/MS; hits are peptides or proteins enriched in WT against Homer1 KO mice (log2FC at least 1); Homer2 and Homer3 stayed enriched after 5 min 50 mM KCl

binding [1] | binding [2] | Molecule
no binding | binds | Metabotropic glutamate receptor 5 (from UniProt Q3UVX5 19-1203)
 | binds | Homer protein homolog 2 (protein, UniProt Q9QWW1 1-354) MGEQPIFTTRAHVFQIDPSTKKNWVPASKQAVTVSYFYDVTRNSYRIISVDGAKVIINSTITPNMTFTKTSQKFGQWADSRANTVFGLGFSSELQLTKFAEKFQEVREAARLARDKSQEKTETSSNHSQESGCETPSSTQASSVNGTDDEKASHASPADTHLKSENDKLKIALTQSAANVKKWEMELQTLRESNARLTTALQESAASVEQWKRQFSICRDENDRLRSKIEELEEQCSEINREKEKNTQLKRRIEELESEVRDKEMELKDLRKQSEIIPQLMSECEYVSEKLEAAERDNQNLEDKVRSLKTDIEESKYRQRHLKGELKSFLEVLDGKIDDLHDFRRGLSKLGTDN
 | binds | SH3 and multiple ankyrin repeat domains protein 2 (protein, UniProt Q80Z38 1-1476) MKSLLNAFTKKEVPFREAPAYSNRRRRPPNTLAAPRVLLRSNSDNNLNAGAPEWAVCSAATSHRSLSPQLLQQTPSKPDGATKSLGSYTPGPRSRSPSLNRLGGTAEDGKRTQPHWHVGSPFTPGANKDSLSTFEYPGPRRKLYSAVPGRLFVAVKPYQPQVDGEIPLHRGDRVKVLSIGEGGFWEGSARGHIGWFPAECVEEVQCKPRDSQAETRADRSKKLFRHYTVGSYDSFDAASDCIIEDKTVVLQKKDNEGFGFVLRGAKADTPIEEFTPTPAFPALQYLESVDEGGVAWQAGLRTGDFLIEVNNENVVKVGHRQVVNMIRQGGNHLILKVVTVTRNLDPDDTARKKAPPPPKRAPTTALTLRSKSMTAELEELGLSLVDKASVRKKKDKPEEIVPASKPSRTAENVAIESRVATIKQRPTSRCFPAASDVNSVYERQGIAVMTPTVPGSPKGPFLGLPRGTMRRQKSIDSRIFLSGITEEERQFLAPPMLKFTRSLSMPDTSEDIPPPPQSVPPSPPPPSPTTYNCPRSPTPRVYGTIKPAFNQNPVVAKVPPATRSDTVATMMREKGMFYRRELDRFSLDSEDVYSRSPAPQAAFRTKRGQMPENPYSEVGKIASKAVYVPAKPARRKGVLVKQSNVEDSPEKTCSIPIPTIIVKEPSTSSSGKSSQGSSMEIDPQATEPGQLRPDDSLTVSSPFAAAIAGAVRDREKRLEARRNSPAFLSTDLGDEDVGLGPPAPRMQASKFPEEGGFGDEDETEQPLLPTPGAAPRELENHFLGGGEAGAQGEAGGPLSSTSKAKGPESGPAAPLKSSSPAGPENYVHPLTGRLLDPSSPLALALSARDRAMQESQQGHKGEAPKADLNKPLYIDTKMRPSVESGFPPVTRQNTRGPLRRQETENKYETDLGKDRRADDKKNMLINIVDTAQQKSAGLLMVHTVDVPMAGPPLEEEEDREDGDTKPDHSPSTVPEGVPKTEGALQISAAPEPAVAPGRTIVAAGSVEEAVILPFRIPPPPLASVDLDEDFLFTEPLPPPLEFANSFDIPDDRAASVPALADLVKQKKNDTSQPPTLNSSQPANSTDSKKPAGISNCLPSSFLPPPESFDAVTDSGIEEVDSRSSSDHHLETTSTISTVSSISTLSSEGGESMDTCTVYADGQAFVVDKPPVPPKPKMKPIVHKSNALYQDTLPEEDTDGFVIPPPAPPPPPGSAQAGVAKVIQPRTSKLWGDVPEVKSPILSGPKANVISELNSILQQMNRGKSVKPGEGLELPVGAKSANLAPRSPEVMSTVSGTRSTTVTFTVRPGTSQPITLQSRPPDYESRTSGPRRAPSPVVSPTELSKEILPTPPPPSATAASPSPTLSDVFSLPSQSPAGDLFGLNPAGRSRSPSPSILQQPISNKPFTTKPVHLWTKPDVADWLESLNLGEHKETFMDNEIDGSHLPNLQKEDLIDLGVTRVGHRMNIERALKQLLDR
